The values below come from article PMC7321154 (Molecules, 2020).

This data set is described as follows: general procedure: Fmoc solid-phase peptide synthesis; 2-chlorotrityl chloride resin (2-CTC); PyBOP (folic acid coupling on resin).
The mark [1] stands for this setting: whole synthesis, LC-MS, scale of the general procedure 319 mg resin.

For the substance [Lys-(HE)2]-Folic Acid, for the setting “whole synthesis”, the crude mass is 116 mg. Moreover, the “crude LC-MS purity” value under setting [1] is on record as 92%. For the setting “whole synthesis, scale of the general procedure 319 mg resin”, this substance yielded a crude yield of 52%.
With NODAGA(tBu)3-[Lys-(HE)2]-Folic Acid, under “conjugation step”, the conjugation yield was found to be 25%. Where the note is “conjugation step, LC-MS”, the “final LC-MS purity” value was 99%.
In turn, NODAGA-[Lys-(HE)2]-folic acid registered a step yield (late stage modification step) of 86%. Where the note is “late stage modification step, LC-MS”, the “crude LC-MS purity” value is recorded as 94%. In addition, the “purity (crude or final not stated)” value under setting [1] is given as no less than 99%.
